Data on one compound can be found in US12109179B2, “Pharmaceutical compositions and combinations comprising inhibitors of the androgen receptor and uses thereof” (ESSA Pharma Inc., priority 2019, dated 2024).

This test has as its system VCaP cells. The test can be described thus: VCaP cell proliferation assay (BrdU incorporation). The test is classed as cell-based. To be noted: Homo sapiens, read-out: IC50 for blocking proliferation of VCaP cells. An excerpt: BrdU incorporation was used to assess cell proliferation.
Background: Incorporation of labelled thymidine or its analogues reports DNA synthesis.

Regarding `CNC(=O)c1ccc(N2C(=S)N(c3ccc(C#N)c(C(F)(F)F)c3)C(=O)C2(C)C)cc1F` [Enzalutamide, enzalutamide], the IC50 was found to be 164 µM.
